# These are yes or no findings as the source states them, for the method shown. Some entries that bind do so weakly or less than the wild type. Sequences can lack the tags named with a protein.
# Amino acid sequences for entries named in this document (tags omitted). A change or cut given only in a name is not applied to a line headed by its entry.
# UniProt P18627: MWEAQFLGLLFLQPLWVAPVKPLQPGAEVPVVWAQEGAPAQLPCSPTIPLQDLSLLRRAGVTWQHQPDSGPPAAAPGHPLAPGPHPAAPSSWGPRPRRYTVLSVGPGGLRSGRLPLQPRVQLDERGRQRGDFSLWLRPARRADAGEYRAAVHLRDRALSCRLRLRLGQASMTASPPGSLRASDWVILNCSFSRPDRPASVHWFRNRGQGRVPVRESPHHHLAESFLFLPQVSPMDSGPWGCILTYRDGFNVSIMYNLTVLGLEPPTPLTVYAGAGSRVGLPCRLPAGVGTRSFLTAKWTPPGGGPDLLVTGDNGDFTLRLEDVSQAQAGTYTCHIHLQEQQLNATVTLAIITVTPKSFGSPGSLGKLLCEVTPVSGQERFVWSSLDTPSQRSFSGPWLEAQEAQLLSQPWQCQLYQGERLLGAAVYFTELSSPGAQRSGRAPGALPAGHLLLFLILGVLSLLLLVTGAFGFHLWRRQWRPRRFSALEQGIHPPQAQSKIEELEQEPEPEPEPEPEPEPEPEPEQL
# Legend:
# [1] = target: LAG-3 and PD-1 on activated human T cells (human) (UniProt P18627); experiment: flow cytometry on activated human T cells (FIG. 2)
# [2] = target: LAG-3 and PD-1 on activated human T cells (human) (UniProt P18627); experiment: flow cytometry (Intellicyte) on anti-CD3/anti-CD28 stimulated human CD4+ T cells; His-tagged VH detected with anti-HIS biotin and streptavidin AlexaFluor488
# [3] = target: LAG-3 and PD-1 on activated human T cells (human) (UniProt P18627); experiment: flow cytometry on anti-CD3/anti-CD28 stimulated CD4+ T cells, anti-HIS detection
# [4] = target: LAG-3 and PD-1 on activated human T cells (human) (UniProt P18627); experiment: flow cytometry on activated human T cells
binding [1],binding [2],binding [3],binding [4],Binder
binds,binds,binds,–,VH1.1-6GS-VH1.1-9GS-VH2.63-His6 (bispecific antibody) EVQLVESGGGVVRPGGSLRLSCSASGFTFDDYGMSWVRQAPGKGLEWVSGIHWNGGNSGYADSVKGRFTISRDNAKNSLYLQMNSLRAEDTALYYCARIPREDCSSASCYTDAIDFWGPGTMVTVSSGGGGSGGGGSGGGGSGGGGSGGGGSGGGGSEVQLVESGGGVVRPGGSLRLSCSASGFTFDDYGMSWVRQAPGKGLEWVSGIHWNGGNSGYADSVKGRFTISRDNAKNSLYLQMNSLRAEDTALYYCARIPREDCSSASCYTDAIDFWGPGTMVTVSSGGGGSGGGGSGGGGSGGGGSGGGGSGGGGSGGGGSGGGGSGGGGSEVQLVESGGGLVKPGGSLRLSCAASGFTFSDSSMTWMRQAPGKGLEWVSYISSGGGVKFYTDSVKGRFTISRDNAKNSLYLQMNSLRADDTAVYYCAREAPLRLGESPHDAFDISGQGTMVTVSSAAAHHHHHH
–,–,–,binds,VH1.2-6GS-VH1.2-6GS-VH2.92-His6 (bispecific antibody) EVQLVESGGGVVRPGGSLRLSCAASGFTFDDYGMSWVRQAPGKGLEWVSGIHWNGGSTGYADSVKGRFTISRDNAKNSLYLQMNSLRAEDTALYYCARIPREDCSSASCYTDAIDFWGQGTMVTVSSGGGGSGGGGSGGGGSGGGGSGGGGSGGGGSEVQLVESGGGVVRPGGSLRLSCAASGFTFDDYGMSWVRQAPGKGLEWVSGIHWNGGSTGYADSVKGRFTISRDNAKNSLYLQMNSLRAEDTALYYCARIPREDCSSASCYTDAIDFWGQGTMVTVSSGGGGSGGGGSGGGGSGGGGSGGGGSGGGGSEVQLVESGGGLVKPGGSLRLSCAASGFTFSDESMTWMRQAPGKGLEWVSYISSGGGVKFYADSVKGRFTISRDNAKNSLYLQMNSLRAEDTAVYYCAREAPLRLGESPHDAFDISGQGTMVTVSSAAAHHHHHH
